# According to article doi:10.1101/2022.10.04.510902 (bioRxiv, 2022):
# Sequences of proteins named here, by UniProt entry; tags and fusion partners are left off.
# UniProt O54943: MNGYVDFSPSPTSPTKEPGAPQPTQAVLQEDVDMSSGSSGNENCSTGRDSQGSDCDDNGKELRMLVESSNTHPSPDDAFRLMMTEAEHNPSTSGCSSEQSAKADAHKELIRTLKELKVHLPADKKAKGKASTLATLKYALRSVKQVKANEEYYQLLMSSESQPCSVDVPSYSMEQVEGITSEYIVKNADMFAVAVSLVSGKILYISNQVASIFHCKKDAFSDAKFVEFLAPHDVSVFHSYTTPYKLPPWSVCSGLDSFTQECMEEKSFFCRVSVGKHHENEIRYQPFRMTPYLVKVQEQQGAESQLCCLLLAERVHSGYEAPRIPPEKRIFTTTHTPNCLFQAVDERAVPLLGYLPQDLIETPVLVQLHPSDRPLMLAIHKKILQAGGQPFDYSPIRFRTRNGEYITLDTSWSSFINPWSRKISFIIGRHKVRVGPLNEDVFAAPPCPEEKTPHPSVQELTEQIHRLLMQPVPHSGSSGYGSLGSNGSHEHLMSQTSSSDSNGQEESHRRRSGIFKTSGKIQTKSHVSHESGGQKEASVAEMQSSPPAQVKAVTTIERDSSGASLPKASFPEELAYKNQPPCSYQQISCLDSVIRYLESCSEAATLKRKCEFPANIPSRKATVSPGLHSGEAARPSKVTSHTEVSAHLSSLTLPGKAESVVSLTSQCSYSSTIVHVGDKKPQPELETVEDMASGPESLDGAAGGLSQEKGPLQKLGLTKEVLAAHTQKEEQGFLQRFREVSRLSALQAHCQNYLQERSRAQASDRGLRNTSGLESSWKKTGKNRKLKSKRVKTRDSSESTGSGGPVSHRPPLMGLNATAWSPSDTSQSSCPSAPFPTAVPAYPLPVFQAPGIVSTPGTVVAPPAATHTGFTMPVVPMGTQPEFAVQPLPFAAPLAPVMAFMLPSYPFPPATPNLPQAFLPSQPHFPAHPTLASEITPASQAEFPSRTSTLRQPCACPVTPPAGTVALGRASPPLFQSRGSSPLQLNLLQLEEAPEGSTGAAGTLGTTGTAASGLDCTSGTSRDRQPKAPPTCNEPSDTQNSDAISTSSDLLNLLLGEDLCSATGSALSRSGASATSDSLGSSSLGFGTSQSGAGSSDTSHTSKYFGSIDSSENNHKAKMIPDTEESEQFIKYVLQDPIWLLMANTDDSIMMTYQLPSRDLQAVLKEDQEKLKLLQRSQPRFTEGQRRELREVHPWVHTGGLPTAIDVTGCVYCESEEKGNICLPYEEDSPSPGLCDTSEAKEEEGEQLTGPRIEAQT
# Results are given in words; binding and its absence hold for the method and conditions named. For part of these data: Binding seen in cells or lysates may run through a third protein. Some results given as binding are weak or reduced against the parent protein; the word gives no strength. Tags and fused reporters may be left off the sequences shown.
# T1: CHRONO-flag, full length (human) (UniProt Q8N365)
# T1 sequence: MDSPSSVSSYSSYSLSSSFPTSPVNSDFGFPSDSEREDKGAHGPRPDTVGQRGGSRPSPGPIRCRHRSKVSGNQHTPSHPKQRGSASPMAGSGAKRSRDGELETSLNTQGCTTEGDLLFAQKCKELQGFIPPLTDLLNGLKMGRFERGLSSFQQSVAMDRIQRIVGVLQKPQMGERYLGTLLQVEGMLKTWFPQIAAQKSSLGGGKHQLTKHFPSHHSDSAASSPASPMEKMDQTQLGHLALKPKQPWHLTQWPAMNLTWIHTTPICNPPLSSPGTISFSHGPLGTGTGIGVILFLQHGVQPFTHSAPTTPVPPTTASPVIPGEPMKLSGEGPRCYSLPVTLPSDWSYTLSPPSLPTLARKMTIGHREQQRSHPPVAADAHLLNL
# T2: BMAL2 TAD, residues 540-579 (mouse) (UniProt Q2VPD4)
# T2 sequence: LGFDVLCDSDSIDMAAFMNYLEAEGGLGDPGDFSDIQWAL
# Key:
# [1] = biological target: T1, CHRONO-flag, full length (human); assay: co-IP
# [2] = biological target: T2, BMAL2 TAD, residues 540-579 (mouse); assay: ITC
# [3] = biological target: Full-length mouse His-PERIOD2-flag (mouse, UniProt O54943 1-1257); assay: pull-down
binding [1],Binder,other results
no binding,"PER2 1-473 (domain or fragment, UniProt O15055 1-473) MNGYAEFPPSPSNPTKEPVEPQPSQVPLQEDVDMSSGSSGHETNENCSTGRDSQGSDCDDSGKELGMLVEPPDARQSPDTFSLMMAKSEHNPSTSGCSSDQSSKVDTHKELIKTLKELKVHLPADKKAKGKASTLATLKYALRSVKQVKANEEYYQLLMSSEGHPCGADVPSYTVEEMESVTSEHIVKNADMFAVAVSLVSGKILYISDQVASIFHCKRDAFSDAKFVEFLAPHDVGVFHSFTSPYKLPLWSMCSGADSFTQECMEEKSFFCRVSVRKSHENEIRYHPFRMTPYLVKVRDQQGAESQLCCLLLAERVHSGYEAPRIPPEKRIFTTTHTPNCLFQDVDERAVPLLGYLPQDLIETPVLVQLHPSDRPLMLAIHKKILQSGGQPFDYSPIRFRARNGEYITLDTSWSSFINPWSRKISFIIGRHKVRVGPLNEDVFAAHPCTEEKALHPSIQELTEQIHRLLLQP",
no binding,"PER2 1-720 (domain or fragment, UniProt O15055 1-720) MNGYAEFPPSPSNPTKEPVEPQPSQVPLQEDVDMSSGSSGHETNENCSTGRDSQGSDCDDSGKELGMLVEPPDARQSPDTFSLMMAKSEHNPSTSGCSSDQSSKVDTHKELIKTLKELKVHLPADKKAKGKASTLATLKYALRSVKQVKANEEYYQLLMSSEGHPCGADVPSYTVEEMESVTSEHIVKNADMFAVAVSLVSGKILYISDQVASIFHCKRDAFSDAKFVEFLAPHDVGVFHSFTSPYKLPLWSMCSGADSFTQECMEEKSFFCRVSVRKSHENEIRYHPFRMTPYLVKVRDQQGAESQLCCLLLAERVHSGYEAPRIPPEKRIFTTTHTPNCLFQDVDERAVPLLGYLPQDLIETPVLVQLHPSDRPLMLAIHKKILQSGGQPFDYSPIRFRARNGEYITLDTSWSSFINPWSRKISFIIGRHKVRVGPLNEDVFAAHPCTEEKALHPSIQELTEQIHRLLLQPVPHSGSSGYGSLGSNGSHEHLMSQTSSSDSNGHEDSRRRRAEICKNGNKTKNRSHYSHESGEQKKKSVTEMQTNPPAEKKAVPAMEKDSLGVSFPEELACKNQPTCSYQQISCLDSVIRYLESCNEAATLKRKCEFPANVPALRSSDKRKATVSPGPHAGEAEPPSRVNSRTGVGTHLTSLALPGKAESVASLTSQCSYSSTIVHVGDKKPQPELEMVEDAASGPESLDCLAGPALACGLSQEKEPF",
no binding,"PER2 1-569 (domain or fragment, UniProt O15055 1-569) MNGYAEFPPSPSNPTKEPVEPQPSQVPLQEDVDMSSGSSGHETNENCSTGRDSQGSDCDDSGKELGMLVEPPDARQSPDTFSLMMAKSEHNPSTSGCSSDQSSKVDTHKELIKTLKELKVHLPADKKAKGKASTLATLKYALRSVKQVKANEEYYQLLMSSEGHPCGADVPSYTVEEMESVTSEHIVKNADMFAVAVSLVSGKILYISDQVASIFHCKRDAFSDAKFVEFLAPHDVGVFHSFTSPYKLPLWSMCSGADSFTQECMEEKSFFCRVSVRKSHENEIRYHPFRMTPYLVKVRDQQGAESQLCCLLLAERVHSGYEAPRIPPEKRIFTTTHTPNCLFQDVDERAVPLLGYLPQDLIETPVLVQLHPSDRPLMLAIHKKILQSGGQPFDYSPIRFRARNGEYITLDTSWSSFINPWSRKISFIIGRHKVRVGPLNEDVFAAHPCTEEKALHPSIQELTEQIHRLLLQPVPHSGSSGYGSLGSNGSHEHLMSQTSSSDSNGHEDSRRRRAEICKNGNKTKNRSHYSHESGEQKKKSVTEMQTNPPAEKKAVPAMEKDSLGVSFPE",
binds,"PER2 1-763 (domain or fragment, UniProt O15055 1-763) MNGYAEFPPSPSNPTKEPVEPQPSQVPLQEDVDMSSGSSGHETNENCSTGRDSQGSDCDDSGKELGMLVEPPDARQSPDTFSLMMAKSEHNPSTSGCSSDQSSKVDTHKELIKTLKELKVHLPADKKAKGKASTLATLKYALRSVKQVKANEEYYQLLMSSEGHPCGADVPSYTVEEMESVTSEHIVKNADMFAVAVSLVSGKILYISDQVASIFHCKRDAFSDAKFVEFLAPHDVGVFHSFTSPYKLPLWSMCSGADSFTQECMEEKSFFCRVSVRKSHENEIRYHPFRMTPYLVKVRDQQGAESQLCCLLLAERVHSGYEAPRIPPEKRIFTTTHTPNCLFQDVDERAVPLLGYLPQDLIETPVLVQLHPSDRPLMLAIHKKILQSGGQPFDYSPIRFRARNGEYITLDTSWSSFINPWSRKISFIIGRHKVRVGPLNEDVFAAHPCTEEKALHPSIQELTEQIHRLLLQPVPHSGSSGYGSLGSNGSHEHLMSQTSSSDSNGHEDSRRRRAEICKNGNKTKNRSHYSHESGEQKKKSVTEMQTNPPAEKKAVPAMEKDSLGVSFPEELACKNQPTCSYQQISCLDSVIRYLESCNEAATLKRKCEFPANVPALRSSDKRKATVSPGPHAGEAEPPSRVNSRTGVGTHLTSLALPGKAESVASLTSQCSYSSTIVHVGDKKPQPELEMVEDAASGPESLDCLAGPALACGLSQEKEPFKKLGLTKEVLAAHTQKEEQSFLQKFKEIRKLSIFQSHCHYYLQ",
,"His-CHRONO minimal repressive domain (MRD) (domain or fragment, UniProt Q8N365 101-245) ELETSLNTQGCTTEGDLLFAQKCKELQGFIPPLTDLLNGLKMGRFERGLSSFQQSVAMDRIQRIVGVLQKPQMGERYLGTLLQVEGMLKTWFPQIAAQKSSLGGGKHQLTKHFPSHHSDSAASSPASPMEKMDQTQLGHLALKPK",binding [2]: binds weakly
,"CHRONO minimal repressive domain (MRD), tag form not stated (domain or fragment, UniProt Q8N365 101-245) ELETSLNTQGCTTEGDLLFAQKCKELQGFIPPLTDLLNGLKMGRFERGLSSFQQSVAMDRIQRIVGVLQKPQMGERYLGTLLQVEGMLKTWFPQIAAQKSSLGGGKHQLTKHFPSHHSDSAASSPASPMEKMDQTQLGHLALKPK",binding [3]: no binding
